The experiment has as its target Nup188 (human (endogenous in NT2/D1)) (UniProt Q5SRE5). As to the kind of experiment: co-IP.

Chains of the proteins cited; added tags and fusions are not shown.
UniProt Q5SRE5: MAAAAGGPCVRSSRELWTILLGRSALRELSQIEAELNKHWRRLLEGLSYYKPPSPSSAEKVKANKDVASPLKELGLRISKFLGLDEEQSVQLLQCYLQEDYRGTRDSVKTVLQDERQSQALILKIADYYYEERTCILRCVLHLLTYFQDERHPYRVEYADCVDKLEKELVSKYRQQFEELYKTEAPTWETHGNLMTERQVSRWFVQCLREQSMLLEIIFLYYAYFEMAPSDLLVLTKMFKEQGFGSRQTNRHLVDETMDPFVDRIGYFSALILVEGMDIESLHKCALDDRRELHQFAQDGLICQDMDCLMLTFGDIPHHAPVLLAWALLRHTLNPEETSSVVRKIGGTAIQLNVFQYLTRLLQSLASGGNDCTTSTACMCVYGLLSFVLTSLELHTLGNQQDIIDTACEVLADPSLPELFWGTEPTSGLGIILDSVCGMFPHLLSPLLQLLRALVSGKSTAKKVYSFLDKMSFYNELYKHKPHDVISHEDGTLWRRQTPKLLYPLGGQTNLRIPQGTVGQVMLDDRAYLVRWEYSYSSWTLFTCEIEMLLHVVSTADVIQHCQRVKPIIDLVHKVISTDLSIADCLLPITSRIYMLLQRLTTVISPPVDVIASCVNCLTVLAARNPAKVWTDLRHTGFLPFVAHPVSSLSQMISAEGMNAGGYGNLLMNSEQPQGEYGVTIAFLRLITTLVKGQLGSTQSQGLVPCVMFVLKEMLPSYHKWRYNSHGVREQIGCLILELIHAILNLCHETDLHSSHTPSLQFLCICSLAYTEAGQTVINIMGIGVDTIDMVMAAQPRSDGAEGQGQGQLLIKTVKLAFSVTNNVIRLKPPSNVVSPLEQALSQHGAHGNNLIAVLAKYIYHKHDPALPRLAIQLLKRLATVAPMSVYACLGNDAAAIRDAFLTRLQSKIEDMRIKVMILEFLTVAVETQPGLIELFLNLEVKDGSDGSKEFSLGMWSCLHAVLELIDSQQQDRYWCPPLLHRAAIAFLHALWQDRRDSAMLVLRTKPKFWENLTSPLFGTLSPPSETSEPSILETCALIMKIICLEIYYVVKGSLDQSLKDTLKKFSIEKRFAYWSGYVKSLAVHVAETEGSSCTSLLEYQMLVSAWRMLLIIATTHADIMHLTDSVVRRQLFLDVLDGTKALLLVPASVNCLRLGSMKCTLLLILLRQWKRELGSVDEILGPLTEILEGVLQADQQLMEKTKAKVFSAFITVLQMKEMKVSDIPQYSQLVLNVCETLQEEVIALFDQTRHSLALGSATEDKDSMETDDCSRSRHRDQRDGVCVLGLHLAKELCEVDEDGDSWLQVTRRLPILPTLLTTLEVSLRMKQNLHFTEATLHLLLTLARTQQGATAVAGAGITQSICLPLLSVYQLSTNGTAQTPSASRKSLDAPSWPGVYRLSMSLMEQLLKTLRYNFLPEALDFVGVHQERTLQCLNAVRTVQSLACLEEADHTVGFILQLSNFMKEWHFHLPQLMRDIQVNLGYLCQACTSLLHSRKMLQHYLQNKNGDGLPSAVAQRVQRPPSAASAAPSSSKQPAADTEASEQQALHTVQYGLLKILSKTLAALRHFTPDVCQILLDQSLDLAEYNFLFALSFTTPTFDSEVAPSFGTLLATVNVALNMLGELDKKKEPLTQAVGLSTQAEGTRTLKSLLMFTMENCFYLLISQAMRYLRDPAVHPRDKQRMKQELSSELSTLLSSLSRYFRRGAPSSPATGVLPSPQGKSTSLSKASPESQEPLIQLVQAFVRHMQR
UniProt Q92621: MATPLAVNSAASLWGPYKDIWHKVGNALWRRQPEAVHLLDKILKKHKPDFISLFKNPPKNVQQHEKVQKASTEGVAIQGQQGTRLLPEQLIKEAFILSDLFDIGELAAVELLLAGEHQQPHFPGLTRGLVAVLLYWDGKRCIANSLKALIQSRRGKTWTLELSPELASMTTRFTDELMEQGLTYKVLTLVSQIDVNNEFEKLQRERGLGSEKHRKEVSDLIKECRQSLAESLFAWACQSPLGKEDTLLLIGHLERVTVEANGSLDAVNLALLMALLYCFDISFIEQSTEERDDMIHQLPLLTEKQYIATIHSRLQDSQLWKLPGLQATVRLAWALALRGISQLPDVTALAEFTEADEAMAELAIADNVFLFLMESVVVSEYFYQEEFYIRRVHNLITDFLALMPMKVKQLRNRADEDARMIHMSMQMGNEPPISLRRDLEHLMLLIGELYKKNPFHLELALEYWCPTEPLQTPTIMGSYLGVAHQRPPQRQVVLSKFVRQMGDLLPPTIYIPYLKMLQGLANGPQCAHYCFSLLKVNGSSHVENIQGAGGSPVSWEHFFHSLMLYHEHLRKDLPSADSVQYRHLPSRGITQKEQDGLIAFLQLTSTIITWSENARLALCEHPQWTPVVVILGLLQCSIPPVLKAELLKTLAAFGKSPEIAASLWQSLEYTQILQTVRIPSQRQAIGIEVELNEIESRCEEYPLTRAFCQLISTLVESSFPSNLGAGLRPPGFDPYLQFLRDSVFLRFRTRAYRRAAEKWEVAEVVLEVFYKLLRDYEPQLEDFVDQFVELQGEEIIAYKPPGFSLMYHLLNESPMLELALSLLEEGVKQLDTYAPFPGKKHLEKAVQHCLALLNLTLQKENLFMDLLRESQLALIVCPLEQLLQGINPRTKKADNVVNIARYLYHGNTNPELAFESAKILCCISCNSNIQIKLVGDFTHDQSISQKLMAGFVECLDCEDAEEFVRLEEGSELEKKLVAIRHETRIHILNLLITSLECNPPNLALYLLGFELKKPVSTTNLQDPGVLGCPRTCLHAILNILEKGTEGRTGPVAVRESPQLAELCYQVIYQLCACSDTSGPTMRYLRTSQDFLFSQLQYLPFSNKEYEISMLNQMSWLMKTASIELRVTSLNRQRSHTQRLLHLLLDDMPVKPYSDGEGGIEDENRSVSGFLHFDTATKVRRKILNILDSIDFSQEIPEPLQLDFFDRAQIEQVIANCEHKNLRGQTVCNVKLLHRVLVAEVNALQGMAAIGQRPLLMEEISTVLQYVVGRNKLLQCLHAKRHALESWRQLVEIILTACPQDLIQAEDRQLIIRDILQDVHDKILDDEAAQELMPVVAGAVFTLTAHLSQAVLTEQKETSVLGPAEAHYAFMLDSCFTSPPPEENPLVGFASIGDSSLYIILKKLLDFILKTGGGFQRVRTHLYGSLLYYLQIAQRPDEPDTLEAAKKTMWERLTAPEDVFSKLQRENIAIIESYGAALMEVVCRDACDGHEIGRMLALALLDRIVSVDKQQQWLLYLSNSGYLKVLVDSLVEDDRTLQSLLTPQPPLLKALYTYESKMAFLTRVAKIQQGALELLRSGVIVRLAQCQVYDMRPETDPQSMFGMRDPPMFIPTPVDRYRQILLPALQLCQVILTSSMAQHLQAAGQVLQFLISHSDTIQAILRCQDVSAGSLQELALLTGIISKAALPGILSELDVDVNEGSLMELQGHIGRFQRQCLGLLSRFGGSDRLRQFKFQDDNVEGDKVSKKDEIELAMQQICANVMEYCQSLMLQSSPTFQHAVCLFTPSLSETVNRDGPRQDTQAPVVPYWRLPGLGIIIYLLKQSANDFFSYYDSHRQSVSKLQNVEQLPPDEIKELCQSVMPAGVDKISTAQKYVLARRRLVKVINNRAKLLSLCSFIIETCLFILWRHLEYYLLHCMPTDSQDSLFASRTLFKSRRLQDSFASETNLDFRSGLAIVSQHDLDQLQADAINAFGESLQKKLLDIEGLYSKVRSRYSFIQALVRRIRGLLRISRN

Results are given in words; binding and its absence hold for the method and conditions named. In cells and extracts the contact can be indirect. Some results given as binding are weak or reduced against the parent protein; the word gives no strength.

Three molecules from doi:10.1101/646224 can be followed below.

For the molecule Nup205 (from UniProt Q92621 1-2012), the binding result is given as “no binding”.

B1: CTCF (protein, UniProt P49711 1-727)
chain: MEGDAVEAIVEESETFIKGKERKTYQRRREGGQEEDACHLPQNQTDGGEVVQDVNSSVQMVMMEQLDPTLLQMKTEVMEGTVAPEAEAAVDDTQIITLQVVNMEEQPINIGELQLVQVPVPVTVPVATTSVEELQGAYENEVSKEGLAESEPMICHTLPLPEGFQVVKVGANGEVETLEQGELPPQEDPSWQKDPDYQPPAKKTKKTKKSKLRYTEEGKDVDVSVYDFEEEQQEGLLSEVNAEKVVGNMKPPKPTKIKKKGVKKTFQCELCSYTCPRRSNLDRHMKSHTDERPHKCHLCGRAFRTVTLLRNHLNTHTGTRPHKCPDCDMAFVTSGELVRHRRYKHTHEKPFKCSMCDYASVEVSKLKRHIRSHTGERPFQCSLCSYASRDTYKLKRHMRTHSGEKPYECYICHARFTQSGTMKMHILQKHTENVAKFHCPHCDTVIARKSDLGVHLRKQHSYIEQGKKCRYCDAVFHERYALIQHQKSHKNEKRFKCDQCDYACRQERHMIMHKRTHTGEKPYACSHCDKTFRQKQLLDMHFKRYHDPNFVPAAFVCSKCGKTFTRRNTMARHADNCAGPDGVEGENGGETKKSKRGRKRKMRSKKEDSSDSENAEPDLDDNEDEEEPAVEIEPEPEPQPVTPAPPPAKKRRGRPPGRTNQPKQNQPTAIIQVEDQNTGAIENIIVEVKKEPDAEPAEGEEEEAQPAATDAPNGDLTPEMILSMMDR
Consider B1, for which the binding result is reported as “no binding”.

B2: Nup93 (protein, UniProt Q8N1F7 1-819)
chain: MDTEGFGELLQQAEQLAAETEGISELPHVERNLQEIQQAGERLRSRTLTRTSQETADVKASVLLGSRGLDISHISQRLESLSAATTFEPLEPVKDTDIQGFLKNEKDNALLSAIEESRKRTFGMAEEYHRESMLVEWEQVKQRILHTLLASGEDALDFTQESEPSYISDVGPPGRSSLDNIEMAYARQIYIYNEKIVNGHLQPNLVDLCASVAELDDKSISDMWTMVKQMTDVLLTPATDALKNRSSVEVRMEFVRQALAYLEQSYKNYTLVTVFGNLHQAQLGGVPGTYQLVRSFLNIKLPAPLPGLQDGEVEGHPVWALIYYCMRCGDLLAASQVVNRAQHQLGEFKTWFQEYMNSKDRRLSPATENKLRLHYRRALRNNTDPYKRAVYCIIGRCDVTDNQSEVADKTEDYLWLKLNQVCFDDDGTSSPQDRLTLSQFQKQLLEDYGESHFTVNQQPFLYFQVLFLTAQFEAAVAFLFRMERLRCHAVHVALVLFELKLLLKSSGQSAQLLSHEPGDPPCLRRLNFVRLLMLYTRKFESTDPREALQYFYFLRDEKDSQGENMFLRCVSELVIESREFDMILGKLENDGSRKPGVIDKFTSDTKPIINKVASVAENKGLFEEAAKLYDLAKNADKVLELMNKLLSPVVPQISAPQSNKERLKNMALSIAERYRAQGISANKFVDSTFYLLLDLITFFDEYHSGHIDRAFDIIERLKLVPLNQESVEERVAAFRNFSDEIRHNLSEVLLATMNILFTQFKRLKGTSPSSSSRPQRVIEDRDSQLRSQARTLITFAGMIPYRTSGDTNARLVQMEVLMN
Turning to B2, the binding entry is “binds”.
